## Primary screen of a compound library

Sequences of proteins named here, by UniProt entry; tags and fusion partners are left off.
UniProt E9BF75, entry or part of it: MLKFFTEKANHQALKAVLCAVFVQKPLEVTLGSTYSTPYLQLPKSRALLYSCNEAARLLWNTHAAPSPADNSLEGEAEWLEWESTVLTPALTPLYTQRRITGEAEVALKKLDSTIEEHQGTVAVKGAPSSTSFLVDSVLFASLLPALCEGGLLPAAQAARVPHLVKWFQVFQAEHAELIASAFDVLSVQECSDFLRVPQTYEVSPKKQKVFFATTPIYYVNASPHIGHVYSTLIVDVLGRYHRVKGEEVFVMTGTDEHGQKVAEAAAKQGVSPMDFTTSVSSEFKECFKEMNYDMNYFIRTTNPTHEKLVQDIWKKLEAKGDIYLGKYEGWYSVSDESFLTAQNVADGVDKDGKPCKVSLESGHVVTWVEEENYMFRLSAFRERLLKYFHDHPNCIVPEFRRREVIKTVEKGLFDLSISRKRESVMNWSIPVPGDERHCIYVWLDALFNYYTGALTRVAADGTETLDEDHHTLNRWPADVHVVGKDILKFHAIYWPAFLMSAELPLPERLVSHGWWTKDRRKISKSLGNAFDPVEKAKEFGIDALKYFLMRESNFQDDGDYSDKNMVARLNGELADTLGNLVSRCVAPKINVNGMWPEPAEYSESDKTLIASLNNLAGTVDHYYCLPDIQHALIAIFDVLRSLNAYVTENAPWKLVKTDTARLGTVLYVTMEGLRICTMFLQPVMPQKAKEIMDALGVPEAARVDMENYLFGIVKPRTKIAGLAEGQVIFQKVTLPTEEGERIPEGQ

Measurements from “University of Dundee, Small-Polar-MMV Screening Library” (2021), ChEMBL document CHEMBL3988442.

LdMetRS: 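Primary screen of methionyl-tRNA synthetase; the read-out is not stated. Target: Methionyl-tRNA synthetase (putative), Leishmania donovani (UniProt E9BF75). The test concentration is not given. Values are per cent inhibition. About 68,000 compounds were tested under these conditions; 0.035% (about 24) showed 50% or more at least once.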
Mtb heat-shock: 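Assay on Mycobacterium tuberculosis, filed only as a heat shock assay from Cornell; the read-out is not stated. The concentration is filed as 10 mM, unlikely as a test dose, so the dose is not known. Direction is inferred from retests: higher values go with stronger inhibition. About 69,000 compounds were tested under these conditions; 1.4% (about 930) showed 50% or more at least once.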

Results are percentages, as filed. The controls that fix the scale are not given in the record; negative values are as filed. The compounds are a random part of those screened. A dash means the value is not listed here; it may have been measured.

| Compound | LdMetRS | Mtb heat-shock |
|---|---|---|
| `c1ccc(-c2nc3c(c(NCCn4ccnn4)n2)CCNCC3)nc1` | 18.51 | -29.1 |
| `COCC(c1ccccn1)N(C)C(=O)c1cc(-c2cccn2C)n[nH]1` (stereo not drawn) | 8.871 | -7.529 |
| `OC1COCCN(Cc2cccc(N3CCOCC3)c2)C1` (stereo not drawn) | 22.77 | 5.94 |
| `CN(Cc1csc(-c2cccs2)n1)C(=O)CCn1ccccc1=O` | 14.63 | -3.941 |
| `CNC(=O)C1Cn2ccnc2C2(CCN(c3ccc(C)nn3)CC2)O1` (stereo not drawn) | 14.38 | -23.24 |
| `COc1cccc(OCC(=O)N2CCCSCC2CN2CCOCC2)c1` (stereo not drawn) | 9.353 | -9.19 |
| `COc1cc(OC)c2c(=O)oc(CC(O)CC(C)=O)cc2c1` (stereo not drawn) | -1.099 | 6.998 |
| `CS(=O)(=O)NC[C@]12COC[C@H]1CN(C(=O)c1ccccc1)C2` | -58.82 | - |
| `Cc1csc(CNC(=O)N(C)Cc2ccc3c(c2)OCO3)n1` | 15.46 | 0.5373 |
| `O=C1N(c2ccc(Br)cc2)Cc2nc(=O)[nH]n21` | 9.544 | 0.7871 |
| `NCC(=O)N1CCCC(c2cncc(Nc3ncccn3)n2)C1` (stereo not drawn) | 16.1 | - |
| `CC(CCNC(=O)NCCc1ccc(S(N)(=O)=O)cc1)c1ccccc1` (stereo not drawn) | 8.711 | -11.61 |
| `O=C(NCc1cccnc1)N1CCSCC1CCO` (stereo not drawn) | -2.618 | -12.92 |
| `CC(C)c1nc(C2CCCN(C(=O)CN3CCN(C)CC3)C2)no1` (stereo not drawn) | 18.21 | -3.425 |
| `CN1C(=O)[C@H]2CC[C@@H]1CN(S(=O)(=O)c1ccc(Cl)cc1Cl)C2` | 4.375 | - |
| `Cc1c(Cl)c(CN2CCCC2Cn2cncn2)nc2ccccc12` (stereo not drawn) | 18.9 | 54.06 |
| `CCS(=O)(=O)N1CCCn2cnc(COc3cccnc3)c2C1` | -78.69 | - |
| `Cn1cc(C2CCCN2C(=O)Cn2ccc3ccccc32)cn1` (stereo not drawn) | 10.87 | 13.16 |
| `O=C(CN1CCOC(CNc2cccnn2)C1)N1CCCCC1` (stereo not drawn) | 23.86 | 57.16 |
| `Cc1cccc(-c2noc(CN3CCC(N4CCNC4=O)CC3)n2)c1` | 16.6 | 5.145 |
| `CC1N(C)C(=O)COC12CCN(C(=O)CCc1ccccc1)CC2` (stereo not drawn) | 5.435 | -23.32 |
| `CC1CCCCN1C(=O)c1nc2c(n1C(C)C)CCN(C)C2.O=C(O)C(F)(F)F` (stereo not drawn) | - | -1.196 |
| `Cc1nn(C)cc1-c1cc(C(F)(F)F)nn1CCC#N` | 11.05 | 25.78 |
| `Cc1ncsc1C(=O)NCCc1cccs1` | 9.206 | -32.02 |
| `CC(C)c1nc(C2CCCN2CCc2ccccn2)no1` (stereo not drawn) | 17.34 | -39.31 |
| `Cc1cc(=O)[nH]c(=O)n1-c1ccccc1Br` | -0.7752 | 6.623 |
| `Cc1ccc(-n2c(COC(C)C)n[nH]c2=O)cc1` | 7.317 | -11.41 |
| `O=C([C@H]1CCCO1)N1CCc2ncnc(NC3CC3)c2CC1` | 11.43 | 65.17 |
| `CN(C)Cc1nnc(C2CCCN(c3nccc4ccccc34)C2)n1C` (stereo not drawn) | 11.06 | -25.1 |
| `c1ccc(CN2CCOC3(CCN(c4ncccn4)CC3)C2)nc1` | 10.03 | - |
| `COc1ccc(CN(C(=O)C2CCCOC2)c2ccncc2)cc1` (stereo not drawn) | 0 | -10.67 |
| `CCOCCC(=O)NCC1COc2c(cccc2OC)C1` (stereo not drawn) | 12.71 | -17.53 |
| `CCn1cc(S(=O)(=O)NC2CCCC2)cn1` | 12.78 | -12.66 |
| `CCC(O)CN1CCN(C(=O)c2sccc2C(C)C)CC1` (stereo not drawn) | 9.29 | -11.45 |
| `NC(=O)CN(Cc1ncc(-c2ccc(F)cc2)o1)C1CCCC1` | 2.514 | -7.737 |
| `Cc1nc(C2CCCN2CCc2cccs2)no1` (stereo not drawn) | 7.99 | 1.144 |
| `O=S1(=O)NCC2(CCN(Cc3ccncc3)CC2)Oc2ncccc21` | 3.429 | -11.09 |
| `Cn1nc(CN2CCCC2)c2c1CN(C(=O)Nc1cccc(F)c1)CC2.O=C(O)C(F)(F)F` | - | -5.514 |
| `Cc1cc(C)n(C2CN(C(=O)c3cn4ccsc4n3)C2)n1` | 18.43 | -171 |
| `COC1CCN(S(=O)(=O)N2CCC3(CCCNC3=O)C2)CC1` (stereo not drawn) | 4.902 | -16.36 |
| `Cc1cc(C2CCCN2Cc2nc3ccccc3o2)on1` (stereo not drawn) | 22.39 | 0.1901 |
| `CN1CCc2c(CNc3ncccn3)n[nH]c2C1` | -2.899 | - |
| `COc1ccc(F)c(NCc2ccc(C(=O)N(C)C)[nH]2)c1` | -0.8065 | -16.48 |
| `CCC(NC(=O)CC1CCN(C(C)C)CC1)c1cn2cccnc2n1` (stereo not drawn) | 9.025 | 2.152 |
| `COCCN1CCc2c(c(COc3cccnc3)nn2C)C1.O=C(O)C(F)(F)F.O=C(O)C(F)(F)F` | - | 5.842 |
| `C=C(C)CNC1CCCN(Cc2noc(C3CC3)n2)C1` (stereo not drawn) | 2.03 | -28.22 |
| `CN(C)C(=O)c1nc(-c2ccc(S(C)(=O)=O)cc2)c2cnccn12` | 15.43 | -16.02 |
| `COc1cccc(-n2c(C)cc(C(=O)NCCCC(N)=O)c2C)c1` | 19.44 | -9.552 |
| `Cn1cc(C(=O)N2CC[C@@]3(O)CCN(C4CCCCC4)C[C@H]3C2)cn1` | -0.3436 | - |
| `COCCCNC(=O)NCc1cccn1Cc1ccccc1C` | 12.83 | -9.105 |
| `CC1c2cccn2CCN1C(=O)CCc1nc(C2CC2)no1` (stereo not drawn) | 5.995 | 9.211 |
| `O=C(c1ccc(C2CCCN2C(=O)c2ccoc2)s1)N1CCOCC1` (stereo not drawn) | 8.591 | 12.27 |
| `CNS(=O)(=O)CCCN(C)Cc1cc(C)ccc1OC` | 10 | -19.03 |
| `Cn1cnnc1C1CCN(c2cncc(-n3cccn3)n2)CC1` | 17.14 | 8.48 |
| `OCC1CCN(C[C@@H]2CN(C3Cc4ccccc4C3)C[C@@H]2CO)CC1` | 12.69 | 11.2 |
| `CN(C)C(=O)C1CCC2(CCNCC2)C1` (stereo not drawn) | 10.56 | - |
| `CN(C)C(=O)C1CCCN1CCCNC(=O)Cc1ccccc1F` (stereo not drawn) | 12.72 | 0.9171 |
| `Cc1nc2sccn2c1CNC1(c2ccccc2F)CCCC1.O=C(O)CC(O)(CC(=O)O)C(=O)O` | - | -3.933 |
| `O=C(NCC(O)c1cccs1)c1cccc(Cl)c1` (stereo not drawn) | 14.29 | 3.381 |
| `Cc1nccn1-c1cc(CNC(=O)C2CCCO2)ccn1` (stereo not drawn) | 18.29 | 5.495 |
| `COc1ccc(F)cc1S(=O)(=O)NCC(c1cccn1C)N(C)C` (stereo not drawn) | 14.29 | 2.488 |
| `CCCn1[nH]cc/c1=N\C(=O)CN1CCc2cnc(C(C)C)nc2C1` | 14.92 | -3.022 |
| `COc1cccc(CNC(=O)CCC2=Nc3ccccc3S(=O)(=O)N2)c1` | 10.82 | 3.954 |
| `Cc1ccc(C(=O)N2CC[C@H]3O[C@@H](c4noc(C)n4)C[C@H]3C2)o1` | 1.613 | - |
| `CC(=O)N1CCC2(CC1)C(=O)N(CC1CCN(C)CC1)c1ccccc12.O=C(O)C(F)(F)F` | - | -3.164 |
| `COC(=O)NCC(=O)N1CCCC(c2ncc[nH]2)C1` (stereo not drawn) | 15.68 | 5.851 |
| `CCOC(=O)C(C)Nc1cccc(COCc2ccco2)c1` (stereo not drawn) | 0.271 | 104.6 |
| `Cc1n[nH]c(C)c1-c1cc(-c2cc[nH]c2)nc(N)c1C#N` | 14.52 | -9.139 |
| `COCCN1CCC2(CC1)COc1ccccc1S(=O)(=O)N(C)C2` | 18.78 | -18.78 |
| `c1ccc(C2CN(C3CC3)CC3(CCN(Cc4cscn4)CC3)C2)cc1` (stereo not drawn) | 16.62 | -87.36 |
| `CCNC(=O)CN1CCc2c(Br)ccc(F)c2C1` | 14.8 | -12.82 |
| `CC(C)C(=O)NCc1ccc(-n2cncn2)nc1` | 3.78 | 3.328 |
| `CNC(=O)NC(C)c1nc(-c2ccc(Br)cc2)no1` (stereo not drawn) | 0.7752 | -6.924 |
| `N[C@H]1CN(CCOc2ccc(F)cc2)C[C@@H]1C1CC1` | 0 | 2.69 |

Some entries from above, unchanged:

- O=C(NCC(O)c1cccs1)c1cccc(Cl)c1 (stereo not drawn) | LdMetRS: 14.29%; Mtb heat-shock: 3.381%
- CC1N(C)C(=O)COC12CCN(C(=O)CCc1ccccc1)CC2 (stereo not drawn) | LdMetRS: 5.435%; Mtb heat-shock: -23.32%
- Cc1cc(C)n(C2CN(C(=O)c3cn4ccsc4n3)C2)n1 | LdMetRS: 18.43%; Mtb heat-shock: -171%
- COc1ccc(F)cc1S(=O)(=O)NCC(c1cccn1C)N(C)C (stereo not drawn) | LdMetRS: 14.29%; Mtb heat-shock: 2.488%
- CN(C)Cc1nnc(C2CCCN(c3nccc4ccccc34)C2)n1C (stereo not drawn) | LdMetRS: 11.06%; Mtb heat-shock: -25.1%
- CN1C(=O)[C@H]2CC[C@@H]1CN(S(=O)(=O)c1ccc(Cl)cc1Cl)C2 | LdMetRS: 4.375%
- CCn1cc(S(=O)(=O)NC2CCCC2)cn1 | LdMetRS: 12.78%; Mtb heat-shock: -12.66%
- CCC(O)CN1CCN(C(=O)c2sccc2C(C)C)CC1 (stereo not drawn) | LdMetRS: 9.29%; Mtb heat-shock: -11.45%
- OCC1CCN(C[C@@H]2CN(C3Cc4ccccc4C3)C[C@@H]2CO)CC1 | LdMetRS: 12.69%; Mtb heat-shock: 11.2%